{"source": "paper PMC8384837", "settings_in_all_cases": "yeast three-hybrid, YBZ-1, SC-Leu-His + 0.5 mM 3-AT, 4 days", "key": {"[1]": {"biological_target": "T1, PUM1 PUF domain R3-THE R4-TFR R7-NPG C935T + R936H + Q939E + N971T + H972F + Q975R + S1079N + N1080P + E1083G (Homo sapiens) (UniProt Q14671)", "T1 sequence": "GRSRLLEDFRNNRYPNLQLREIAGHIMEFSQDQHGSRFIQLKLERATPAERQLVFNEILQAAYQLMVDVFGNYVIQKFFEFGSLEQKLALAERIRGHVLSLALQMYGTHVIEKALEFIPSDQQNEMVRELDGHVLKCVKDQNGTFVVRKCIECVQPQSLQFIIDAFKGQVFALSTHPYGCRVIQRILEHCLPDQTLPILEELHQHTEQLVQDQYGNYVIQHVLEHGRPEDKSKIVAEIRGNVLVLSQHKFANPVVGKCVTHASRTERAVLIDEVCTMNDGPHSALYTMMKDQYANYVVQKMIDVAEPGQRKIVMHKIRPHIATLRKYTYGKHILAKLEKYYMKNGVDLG"}, "[2]": {"biological_target": "T2, PUM1 PUF domain R6-SWD R7-NPG N1043S + Y1044W + Q1047D + S1079N + N1080P + E1083G (UniProt Q14671)", "T2 sequence": "T1 sequence with T108C, H109R, E112Q, T144N, F145H, R148Q, N216S, Y217W, Q220D"}, "[3]": {"biological_target": "T3, PUM1 PUF domain R3-THE R4-TFR R7-NPG C935T + R936H + Q939E + N971T + H972F + Q975R + S1079N + N1080P + E1083G (UniProt Q14671)", "T3 sequence": "T1 sequence"}, "[4]": {"biological_target": "T4, PUM1 PUF domain R6-SWD R7-NPG N1043S + Y1044W + Q1047D + S1079N + N1080P + E1083G (Homo sapiens) (UniProt Q14671)", "T4 sequence": "T1 sequence with T108C, H109R, E112Q, T144N, F145H, R148Q, N216S, Y217W, Q220D"}, "[5]": {"biological_target": "T5, PUM1 PUF domain R5-PHQ R6-SWD C1007P + R1008H + N1043S + Y1044W + Q1047D (UniProt Q14671)", "T5 sequence": "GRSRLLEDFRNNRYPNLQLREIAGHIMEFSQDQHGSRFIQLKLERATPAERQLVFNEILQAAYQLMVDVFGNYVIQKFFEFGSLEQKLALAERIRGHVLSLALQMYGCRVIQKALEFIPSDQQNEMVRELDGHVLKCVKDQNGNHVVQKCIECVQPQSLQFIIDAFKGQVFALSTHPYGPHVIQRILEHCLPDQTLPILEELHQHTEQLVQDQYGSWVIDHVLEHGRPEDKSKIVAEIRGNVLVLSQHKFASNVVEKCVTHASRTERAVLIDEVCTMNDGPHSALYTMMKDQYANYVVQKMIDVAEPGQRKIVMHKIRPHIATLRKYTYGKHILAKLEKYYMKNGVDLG"}}, "note": "Residue numbers refer to the chain shown, from its start. This is one part of the list. For some assays here: At the low end of the ranking the order means little. For some assays here: Construct or isoform of the protein are uncertain."}
{"sequence": "GGCUAGAACUAGUGGAUCCCCCGGCGCCCGGCGGCUCGAGCCCGGGUAAGACAAGCUCGUCUGCAUGCCGCCGGGCGCCAUGCCUGCAGGUCGACUCUAGAAAACAUG", "values": [{"measurement": "binding signal (log2 enrichment (interaction score))", "setting": "[1]", "result": "< -1.17"}, {"measurement": "binding signal (log2 enrichment (interaction score))", "setting": "[2]", "result": -2.32}]}
{"sequence": "GGCUAGAACUAGUGGAUCCCCCGGCGCCCGGCGGCUCGAGCCCGGGUAAGGGAGUGGCGUCUGCAUGCCGCCGGGCGCCAUGCCUGCAGGUCGACUCUAGAAAACAUG", "values": [{"measurement": "binding signal (log2 enrichment (interaction score))", "setting": "[3]", "result": "< -2.6"}]}
{"sequence": "GGCUAGAACUAGUGGAUCCCCCGGCGCCCGGCGGCUCGAGCCCGGGUAAGAUGGUGUUGUCUGCAUGCCGCCGGGCGCCAUGCCUGCAGGUCGACUCUAGAAAACAUG", "values": [{"measurement": "binding signal (log2 enrichment (interaction score))", "setting": "[3]", "result": -2.09}, {"measurement": "binding signal (log2 enrichment (interaction score))", "setting": "[4]", "result": -0.6}]}
{"sequence": "GGCUAGAACUAGUGGAUCCCCCGGCGCCCGGCGGCUCGAGCCCGGGUAAGACUACGUAGUCUGCAUGCCGCCGGGCGCCAUGCCUGCAGGUCGACUCUAGAAAACAUG", "values": [{"measurement": "binding signal (log2 enrichment (interaction score))", "setting": "[1]", "result": -1.29}, {"measurement": "binding signal (log2 enrichment (interaction score))", "setting": "[5]", "result": "< -7.64"}]}
{"sequence": "GGCUAGAACUAGUGGAUCCCCCGGCGCCCGGCGGCUCGAGCCCGGGUAAGUGGGAAUGGUCUGCAUGCCGCCGGGCGCCAUGCCUGCAGGUCGACUCUAGAAAACAUG", "values": [{"measurement": "binding signal (log2 enrichment (interaction score))", "setting": "[3]", "result": -2.78}, {"measurement": "binding signal (log2 enrichment (interaction score))", "setting": "[5]", "result": -8.81}]}
{"sequence": "GGCUAGAACUAGUGGAUCCCCCGGCGCCCGGCGGCUCGAGCCCGGGUAAGUGGCAGUAGUCUGCAUGCCGCCGGGCGCCAUGCCUGCAGGUCGACUCUAGAAAACAUG", "values": [{"measurement": "binding signal (log2 enrichment (interaction score))", "setting": "[3]", "result": -2.74}, {"measurement": "binding signal (log2 enrichment (interaction score))", "setting": "[5]", "result": "< -7.81"}]}
{"sequence": "GGCUAGAACUAGUGGAUCCCCCGGCGCCCGGCGGCUCGAGCCCGGGUAAGUCGACGAGGUCUGCAUGCCGCCGGGCGCCAUGCCUGCAGGUCGACUCUAGAAAACAUG", "values": [{"measurement": "binding signal (log2 enrichment (interaction score))", "setting": "[3]", "result": -2.33}]}
{"sequence": "GGCUAGAACUAGUGGAUCCCCCGGCGCCCGGCGGCUCGAGCCCGGGUAAGUGGUGAACGUCUGCAUGCCGCCGGGCGCCAUGCCUGCAGGUCGACUCUAGAAAACAUG", "values": [{"measurement": "binding signal (log2 enrichment (interaction score))", "setting": "[3]", "result": -2.02}]}
{"sequence": "GGCUAGAACUAGUGGAUCCCCCGGCGCCCGGCGGCUCGAGCCCGGGUAAGUAUAGGUAGUCUGCAUGCCGCCGGGCGCCAUGCCUGCAGGUCGACUCUAGAAAACAUG", "values": [{"measurement": "binding signal (log2 enrichment (interaction score))", "setting": "[5]", "result": -7.2}]}
